Source: PubChem BioAssay AID1671190 (National Center for Advancing Translational Sciences (NCATS), 2021)
About 6,100 (1.1%) of roughly 580,000 compounds were called active. The inconclusive results got no clear call from the source; some entries with a clear call stand among them for comparison. Calls come from the whole dose curve; as a rule, active = well fitted inhibition curve with a large enough effect; inconclusive = small, poorly fitted or top-dose-only effect, or another doubt; inactive = no such curve, though single readings can be large or run the other way. Where the call is inconclusive, the potency comes from a doubtful curve fit.

By UniProt entry, the sequences of proteins in these tests, tags left out. Where a name states a change or a piece, a line headed by the entry shows the natural chain unless it says otherwise.
UniProt P18054: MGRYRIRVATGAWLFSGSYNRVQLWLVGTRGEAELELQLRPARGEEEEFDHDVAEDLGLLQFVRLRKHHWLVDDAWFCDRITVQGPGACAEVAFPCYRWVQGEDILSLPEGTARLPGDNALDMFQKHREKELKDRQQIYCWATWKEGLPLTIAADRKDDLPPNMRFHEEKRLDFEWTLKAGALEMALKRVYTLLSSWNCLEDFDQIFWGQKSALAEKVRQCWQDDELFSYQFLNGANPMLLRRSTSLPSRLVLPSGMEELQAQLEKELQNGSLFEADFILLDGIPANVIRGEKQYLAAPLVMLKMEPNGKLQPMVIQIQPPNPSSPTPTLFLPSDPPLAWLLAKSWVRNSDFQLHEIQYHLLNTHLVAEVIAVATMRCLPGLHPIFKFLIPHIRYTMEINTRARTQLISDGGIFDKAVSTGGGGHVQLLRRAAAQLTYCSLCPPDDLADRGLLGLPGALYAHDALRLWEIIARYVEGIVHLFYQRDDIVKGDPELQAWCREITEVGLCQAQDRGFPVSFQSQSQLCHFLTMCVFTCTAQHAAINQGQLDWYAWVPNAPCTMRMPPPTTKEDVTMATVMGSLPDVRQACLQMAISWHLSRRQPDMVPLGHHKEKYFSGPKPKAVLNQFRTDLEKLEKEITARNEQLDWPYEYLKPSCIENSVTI

These compounds were tested against Polyunsaturated fatty acid lipoxygenase ALOX12 (Homo sapiens) (UniProt P18054) (assay: Primary qHTS assay for inhibitors of human arachidonate 12S-lipoxygenase (ALOX12): Round 2). Conditions: purified 12hLO, xylenol orange hydroperoxide absorbance; activity change, negative = inhibition: at 108 µM (top of the series) unless noted.
Procedure, shortened: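 Purified human 12hLO at 150 nM in 25 mM Hepes, 0.01% Triton X-100, pH 7.0, preincubated 15 min at room temperature with compound. Reaction started with 40 uM arachidonic acid, 30 min at room temperature. Hydroperoxide measured by Fe-xylenol orange, 573/405 nm absorbance ratio.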
% is set by controls: 0 for no effect and ±100 for the full control effect; potency is the fitted concentration of half-maximal effect.

Row | Compound | activity change, negative = inhibition | Potency
1 | Cc1ncc(-c2ccc(F)cc2)c(C2CCCN(Cc3cccc(O)c3)C2)n1 (configuration not stated) | inactive: -1.63% | 
2 | CC(=O)c1ccc(NC(=S)NC(C)c2ccc(Cl)cc2Cl)cc1 (configuration not stated) |  | inconclusive: 50.1 µM [inhibitor, partial curve, poor fit]
3 | CC1CCCC(NC(=O)c2cncc(Br)c2)C1 (configuration not stated) | inactive: -35.2% | 
4 | CC1(C(=O)NS(=O)(=O)c2ccc(C#N)cc2)CCN1C(=O)c1ccc(C2CCCCC2)cc1 (configuration not stated) |  | inconclusive: 89.1 µM [inhibitor, single point]
5 | Cc1ccc(S(=O)(=O)N(C)C)cc1C(=O)NC(c1ccc2c(c1)OCCO2)C(C)C (configuration not stated) |  | inconclusive: 100 µM [inhibitor, single point]
6 | O=[N+]([O-])c1ccc2nc(-c3ccccc3)oc2c1 | inactive: 19.1% | 
7 | COc1ccc(-c2nc(CSCC(=O)N3CCN(c4cccc(C)c4C)CC3)c(C)o2)cc1OC | inactive: -26.9% | 
8 | CCCCN(C)c1c(C)nc2ccc(C(=O)Nc3cc(-c4ccccc4)ccc3OC)cn12 |  | inconclusive: 126 µM [inhibitor, single point]
9 | COc1cccc(C(=O)NCCNc2nc3cc(C)cc(C)c3cc2C#N)c1 | inactive: -5.47% | 
10 | Cc1ccc2nc(-c3ccccc3F)c(Nc3ccc(Cl)cc3)n2c1 |  | inconclusive: 56.2 µM [inhibitor, partial curve, poor fit]
11 | CC1=C(Cc2cc3ccc(=O)oc3cc2O)CC(C)(C)CC1 |  | active: 6.31 µM
12 | CCOC(=O)c1cnc(SCC(=O)Nc2sc(C)c(C)c2C#N)nc1N |  | inconclusive: 126 µM [inhibitor, single point]
13 | O=c1c2ccccc2c(-c2ccc(Cl)cc2)nn1-c1cc(N2CCOCC2)ccc1[N+](=O)[O-] |  | inconclusive: 10 µM [inhibitor, full curve]
14 | Cc1ccccc1OCc1nc(C#N)c(NCc2ccccc2Cl)o1 | inactive: -14.5% | 
15 | CNC(=O)CCn1ncc2cc(OCc3ccccc3-c3ccc(F)cc3C)ccc21 |  | active: 63.1 µM
16 | Cc1nn(-c2ccc(F)cc2)c(-n2cccc2)c1C(=O)N1CCc2ccccc2C1 |  | inconclusive: 56.2 µM [inhibitor, partial curve, poor fit]
17 | CC(=O)c1ccc(CN2CCCCC2)c(OC(C)C)c1 |  | inconclusive: 3.98 µM [inhibitor, full curve, poor fit]
18 | COc1ccccc1N1CC(C)(C)C(=O)N(C(=O)c2ccc(Cl)cc2)C1=S | inactive: 61.6% | 
19 | Cc1cc(C(=O)COC(=O)c2cnccn2)c(C)n1-c1ccc(Br)cc1 |  | inconclusive: 50.1 µM [inhibitor, partial curve, poor fit]
20 | COc1ccc(-c2nc3cc(C)ccc3cc2CN2CCCC(OC)C2)cc1 (configuration not stated) | inactive: 55.5% | 
21 | Cc1[nH]c(C=O)c(C)c1C#N | inactive: 7.55% | 

Of the compounds above, 2 contain a nitro group on carbon:
Row | Compound | activity change, negative = inhibition | Potency
6 | O=[N+]([O-])c1ccc2nc(-c3ccccc3)oc2c1 | inactive: 19.1% | 
13 | O=c1c2ccccc2c(-c2ccc(Cl)cc2)nn1-c1cc(N2CCOCC2)ccc1[N+](=O)[O-] |  | inconclusive: 10 µM [inhibitor, full curve]

(further entries)

Row | Compound | activity change, negative = inhibition | Potency
22 | CN(C)S(=O)(=O)c1ccc(=O)n(Cc2ncc(-c3ccc(Cl)cc3)o2)c1 |  | inconclusive: 50.1 µM [inhibitor, partial curve, poor fit]
23 | COc1cc2cc(Oc3ccc4ccc(=O)oc4c3)c(=O)oc2cc1OC1OC(COC(=O)CC(C)(O)CC(=O)O)C(O)C(O)C1O (configuration not stated) |  | inconclusive: 70.8 µM [inhibitor, partial curve, poor fit]
24 | Cc1ccccc1CN1C(=O)/C(=C\c2ccc(C(=O)NCCN3CCOCC3)cc2)Sc2ccccc21 | inactive: -14.7% | 
25 | O=c1c2c([nH]c3ccccc13)CCCCCC2 |  | inconclusive: 44.7 µM [inhibitor, full curve, poor fit]
26 | COc1ccccc1CNC(=S)NCCc1ccccc1 |  | inconclusive: 50.1 µM [inhibitor, partial curve, poor fit]
27 | C=Cc1c(C)n[nH]c1C |  | inconclusive: 44.7 µM [inhibitor, single point]
28 | Cn1c(O)c(/C=C2\C=Nc3ccccc32)sc1=Nc1ccc(C(=O)O)cc1 |  | inconclusive: 44.7 µM [inhibitor, partial curve, poor fit]
29 | N#C/C(=C\c1ccccc1C(F)(F)F)C(=O)Nc1ccccc1 | inactive: -1.25% | 
30 | CC1CCCCN1Cc1c(O)ccc2c(=O)c(-c3nc4ccccc4s3)coc12 (configuration not stated) |  | inconclusive: 50.1 µM [inhibitor, partial curve, poor fit]
31 | O=C(O)c1ccc(CN(c2ccccn2)S(=O)(=O)c2ccccc2)cc1 | inactive: 12.9% | 
32 | Cc1c(C(=O)N2CCCC2)oc2c1-c1nn(CC(=O)NCCCOC(C)C)cc1CC2 |  | inconclusive: 44.7 µM [inhibitor, partial curve, poor fit]
33 | CC1CCC(NC(=O)CSc2nnc(C(C)C)o2)CC1 (configuration not stated) |  | inconclusive: 79.4 µM [inhibitor, partial curve, poor fit]
34 | COc1ccc(OC)c(S(=O)(=O)N2CCC([C@H]3[C@@H](OC)C(=O)N3C(C)C)CC2)c1 |  | inconclusive: 7.94 µM [inhibitor, full curve]
35 | CC(C)(C)c1ccc(/C=C2/SC(N3CCCC3)=NC2=O)cc1 |  | inconclusive: 100 µM [inhibitor, partial curve, poor fit]
36 | N#C/C(=C\c1ccc(F)cc1)S(=O)(=O)c1ccccc1 |  | inconclusive: 22.4 µM [inhibitor, partial curve, poor fit]
37 | COc1ccccc1N1CCN(c2ccc(-c3ccccc3)nn2)CC1 |  | inconclusive: 35.5 µM [inhibitor, partial curve, poor fit]
38 | S=C(NCCc1ccc(Cl)cc1)NCc1ccco1 |  | inconclusive: 44.7 µM [inhibitor, partial curve, poor fit]
39 | O=C1NC[C@H](CCCCN2C[C@H](Cc3ccc(O)cc3)N(CC3CCCCC3)C(=O)C2=O)N(CCC2CCCCC2)C1=O |  | inconclusive: 56.2 µM [inhibitor, partial curve, poor fit]
40 | CC(=O)N1CCN(C(=O)c2cc(-c3ccc(F)cc3)nc3ccccc23)CC1 | inactive: -12.6% | 
41 | Oc1cccc2cc(Nc3ccccc3)cnc12 |  | inconclusive: 11.2 µM [inhibitor, partial curve, poor fit]
42 | COc1ccc(CN2c3ccccc3C(=O)CS2(=O)=O)cc1OC |  | inconclusive: 126 µM [inhibitor, partial curve, poor fit]
